Measurements published in PMC9134606.
These are yes or no findings as the source states them, for the method shown. Binding seen in cells or lysates may run through a third protein. Some entries that bind do so weakly or less than the wild type. For some of these results: Tags and fused reporters may be left off the sequences shown.

Chains of the proteins cited; added tags and fusions are not shown. Residues count along the entry.
UniProt P31170, residues 44-227: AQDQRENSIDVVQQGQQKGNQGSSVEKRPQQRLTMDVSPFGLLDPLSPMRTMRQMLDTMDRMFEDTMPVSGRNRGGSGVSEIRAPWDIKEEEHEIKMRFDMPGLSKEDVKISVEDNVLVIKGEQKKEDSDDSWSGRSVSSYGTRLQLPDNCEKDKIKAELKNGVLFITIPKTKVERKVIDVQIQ

What was measured:
[1] = molecular target: HSP21 (mature) fused C-terminally to 3FLAG_nYFP or cYFP_3HA (UniProt P31170); experiment: split reporter; BiFC, 174/175 YFP split, same constructions; Arabidopsis (GVG-AvrPto, dexamethasone 24 h before inoculation) epidermal cells
[2] = molecular target: HSP21 (mature) fused C-terminally to 3FLAG_nYFP or cYFP_3HA (UniProt P31170); experiment: split reporter; BiFC, 174/175 YFP split, 35S promoter, both chloroplast-targeted fusions from a single multigenic T-DNA with a reference FP (nucleo-cytosolic CFP, CTP-CFP or OEP7-mTRQ); N. benthamiana mesophyll cells, 3 days after agroinfiltration
[3] = molecular target: HSP21 (mature) fused to the fragments of the 174/175 YFP split without epitope tags (UniProt P31170); experiment: as above
[4] = molecular target: HSP21 (mature) fused to the fragments of the 210/211 mVENUS split (UniProt P31170); experiment: split reporter; BiFC, 210/211 mVENUS split, 35S promoter, chloroplast-targeted fusions from a single T-DNA; N. benthamiana mesophyll cells
[5] = molecular target: HSP21 (mature) fused to the fragments of the 210/211 mVENUS split (UniProt P31170); experiment: split reporter; BiFC, 210/211 mVENUS split, Arabidopsis UBQ10 promoter, chloroplast-targeted fusions from a single T-DNA; N. benthamiana mesophyll cells
[6] = molecular target: HSP21 (mature) with the YFP fragments fused to its N-terminus (UniProt P31170); experiment: split reporter; BiFC, 174/175 YFP split, 35S promoter, both chloroplast-targeted fusions from a single multigenic T-DNA with a reference FP (nucleo-cytosolic CFP, CTP-CFP or OEP7-mTRQ); N. benthamiana mesophyll cells, 3 days after agroinfiltration
[7] = molecular target: HSP21 (mature) fused C-terminally to 3FLAG_nYFP or cYFP_3HA (UniProt P31170); experiment: as above; remark: listed apart in the source

For “HSP21 (mature) fused C-terminally to 3FLAG_nYFP or cYFP_3HA (from UniProt P31170 44-227)”, the binding [1] was “binds” and the binding [2] was “binds”.

“HSP21 (mature) fused to the fragments of the 174/175 YFP split without epitope tags (from UniProt P31170 44-227)” was tested, and the binding [3] was “binds”.

“HSP21 (mature) fused to the fragments of the 210/211 mVENUS split (from UniProt P31170 44-227)” was tested, and the binding [4] was “binds” and the binding [5] was “binds”.

With “HSP21 (mature) with the YFP fragments fused to its N-terminus (from UniProt P31170 44-227)” the binding [6] was “binds”.

B1: PTAC5 fused to cYFP_3HA (protein, UniProt A1A6M1 41-387)
chain: CFSTQNPDREEVRWLREEQRWIREEQRWIREEQRWIRERESLLQEISDLQLRIQSLESRNSQLGNSIPDTISNIAALLQVLKEKNRISESGLSATPMVLESTREQIVEEVEEEEKRVIIAEEKVRVSEPVKKIKRRILKVGSEGDDVQALQEALLKLGFYSGEEDMEFSSFSSGTASAVKTWQASLGVREDGVMTAELLQRLFMDEDVETDKDEASTMKKEEAGNGAVFTSVTQVPEKKQSIVKDQSDREVDVTQNRVFLLGENRWEDPSRLIGRNKPVDRSESTNTKTRCITCRGEGRLMCLECDGTGEPNIEPQFMEWVGEDTKCPYCEGLGYTVCDVCDGKKNL
With B1 the binding [7] was “binds”.
